The campaign covered roughly 2,200 compounds. About 15 (0.7%) were called active.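 How the source made its calls: active means fitted half-maximal concentration for loss of luminescence signal no more than a set limit of log units above the top tested concentration; inconclusive means flat fit with 30 to 70% signal loss, or invalid fit; inactive means half-maximal concentration above that set limit.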 Some of the results follow.
Assay: ADP-Glo luciferase signal interference – biochemical, luminescence, cell-free, homogeneous, artefact control for GSK3beta inhibitor project, dose response (AID 434947);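 further: kinase-free counter screen of ADP-Glo detection reagents for GSK3beta hits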
Settings: Cell-free ADP-Glo reagents, 5 uM ADP

EC50, inactive:
CCOc1ccc(OCC)c(NC(=O)CSc2nnc(C3CC3)n2CC)c1 > 30 µM
COCC(C)n1c(C)cc(C(=O)COC(=O)c2ccc3c(c2)NC(=O)CS3)c1C (stereo unspecified) > 30 µM
Nc1ccc2oc(-c3ccccc3Cl)cc(=O)c2c1O > 30 µM
CCc1c(C(=O)Nc2ccccc2C(N)=O)csc1C > 30 µM
CC(=O)Oc1cc(C)cc2oc(=O)cc(-c3ccccc3)c12 > 30 µM
CC(C)CNc1nc(N)c([N+](=O)[O-])c(N2CCCCCC2)n1 > 30 µM
O=C1Nc2cc(C(=O)NCCCN3CCOCC3)ccc2S/C1=C/c1ccccc1F > 30 µM
Fc1ccccc1CSc1nnc(-c2ccccc2)o1 > 30 µM
CCOC(=O)CSc1ccc2nnc(-c3cccs3)n2n1 > 30 µM
CCC(C)Nc1nc(N)c([N+](=O)[O-])c(NCCO)n1 (stereo unspecified) > 30 µM
COc1ccccc1Nc1nc(NCCC(C)C)nc(N)c1[N+](=O)[O-] > 30 µM
CC(CC(=O)Nc1nnc(C(C)(C)C)s1)c1ccccc1 (stereo unspecified) > 30 µM
COc1cccc2cc(C(=O)Oc3ccccc3)c(=O)oc12 > 30 µM
CCOc1ccc(NC(=O)Nc2cnccn2)cc1 > 30 µM
CC(C)CCNc1nc(N)c([N+](=O)[O-])c(NC2CCCCC2)n1 > 30 µM
CCn1c(SCC(=O)Nc2ccccc2Cl)nnc1C1CC1 > 30 µM
Cc1ccc(NC(=O)CSCc2ccc(F)cc2)cc1 > 30 µM
Fc1ccc(Nc2nc(-c3ccncc3)nc3ccccc23)cc1 > 30 µM
Cc1ccc(CNS(=O)(=O)c2c(C)[nH]c(=O)[nH]c2=O)cc1 > 30 µM
O=C(O)/C=C/c1cccc2c1OCCO2 > 30 µM
COc1ccccc1C(=O)Oc1ccc(C(C)(C)C)cc1 > 30 µM
C=CCn1c(=O)c(C(=O)NCc2ccc(Cl)cc2)c(O)c2ccccc21 > 30 µM
O=C(c1cccs1)c1coc2ccc(O)c(CN3CCOCC3)c12 > 30 µM
Cc1nc2sc(C(c3cccc(F)c3)N3CC(C)OC(C)C3)c(O)n2n1 (stereo unspecified) > 30 µM
Nc1ccc(C(=O)Nc2ccccc2C(=O)O)cc1 > 30 µM
NC(=O)c1c(NC(=O)CN2CCCC2)sc2c1CCCC2 > 30 µM
COc1ccccc1N1CCN(CCCNC(=O)C2CCCN(c3ncnc4c3nc3n4CCCCC3)C2)CC1 (stereo unspecified) > 30 µM
COCCNc1nc(N)c([N+](=O)[O-])c(Nc2ccc(F)cc2)n1 > 30 µM
CN1CCc2c(sc3c2c(=O)n(-c2ccccc2)c2nnc(SCc4ccccc4)n32)C1 > 30 µM
COc1ccc(OC)c(C(=O)c2coc3ccc(OC)cc23)c1 > 30 µM
Cc1ccc(CNc2nc(N)c([N+](=O)[O-])c(Nc3cccc(F)c3)n2)cc1 > 30 µM
O=C(O)c1ccccc1N/N=C\c1ccnc2ccccc12 > 30 µM
Cc1ccc2c(c1)cc1c(=O)[nH]ncn12 > 30 µM
CCN(CC)Cc1c(C(=O)OC)nnn1-c1nonc1N > 30 µM
COc1cccc2cc(C(=O)CS(=O)(=O)c3ccc(C)cc3)c(=O)oc12 > 30 µM
CCC(CC)NC(=O)COC(=O)c1ccc2c(c1)C(=O)N(Cc1ccco1)C2=O > 30 µM
Cc1cc(OC(C)C)c2c(-c3ccccc3)cc(=O)oc2c1 > 30 µM
CCC(C)Nc1nc(N)c([N+](=O)[O-])c(Nc2ccccc2OC)n1 (stereo unspecified) > 30 µM
O=C1Nc2cc(C(=O)NCCCN3CCCC3)ccc2S/C1=C/c1ccccc1F > 30 µM
COc1cccc(C(=O)NCCCNC(=O)c2cccc(OC)c2)c1 > 30 µM
O=C(O)CCn1cc(/C=C\C(=O)c2ccc(Cl)cc2)c(-c2cccc(Br)c2)n1 > 30 µM
O=C1c2ccccc2-c2onc3ccc(NCCCn4ccnc4)c1c23 > 30 µM
CCc1ccc(CNC(=O)C2CCC(=O)N(CCc3ccc(Cl)cc3)C2)nc1 (stereo unspecified) > 30 µM
Cc1ccc(OCC(=O)N/N=C/c2ccccc2)c([N+](=O)[O-])c1 > 30 µM
O=C1N=C(N2CCc3ccccc3C2)S/C1=C\c1ccc(O)cc1 > 30 µM
CCCCc1c(O)nc(SCC(=O)c2ccccc2)n(-c2ccccc2OC)c1=O > 30 µM
c1ccc(Cn2c(-c3ccco3)nc3nc4ccccc4nc32)cc1 > 30 µM
CCC(OCC(O)CN1CCCCC1)c1ccccc1 (stereo unspecified) > 30 µM
CCOC(=O)c1nnn(-c2nonc2N)c1COc1ccccc1 > 30 µM
COC(=O)c1sccc1NC(=O)c1ccc(Br)s1 > 30 µM
CCCC(=O)Nc1nn(CC(C)C)c2nc3cc(C)ccc3cc12 > 30 µM
CCOc1cc(C(=O)OCC(=O)Nc2ccc(Cl)cn2)ccc1OCC(=O)N1CCOCC1 > 30 µM
CN1CCN(C(=O)c2ccc(OCCOc3ccccc3)cc2)CC1 > 30 µM
C=CCNC(=O)c1ccc(OC)cc1 > 30 µM
Cc1ccc(-n2c(=O)c3c4c(sc3n3c(=S)[nH]nc23)CCC4)cc1 > 30 µM
CCn1c(SCc2ccccc2)nnc1-c1cccs1 > 30 µM
CSc1nc(NCc2ccco2)c2c3c(sc2n1)CN(C)CC3 > 30 µM
CCN(CC)Cc1c(C(=O)OC(C)C)nnn1-c1nonc1N > 30 µM
COc1cc(/C=N/O)ccc1Oc1ccc([N+](=O)[O-])cc1[N+](=O)[O-] > 30 µM
COc1ccc(Nc2nc(N)c([N+](=O)[O-])c(NCCO)n2)cc1 > 30 µM
O=C(COc1ccccc1)N1CCN(S(=O)(=O)c2cccs2)CC1 > 30 µM

Random excerpt: 3 compounds from above, in no set order.
EC50, inactive:
CN1CCc2c(sc3c2c(=O)n(-c2ccccc2)c2nnc(SCc4ccccc4)n32)C1 > 30 µM
Cc1cc(OC(C)C)c2c(-c3ccccc3)cc(=O)oc2c1 > 30 µM
CC(CC(=O)Nc1nnc(C(C)(C)C)s1)c1ccccc1 (stereo unspecified) > 30 µM

Source: PubChem BioAssay AID434947 (Broad Institute, 2010)
